The supplement of paper PMC10689618
Structures can show the parent of a compound that is named as a salt. The list shows a part of the results. Many values rest on one well or one pass, so single values are uncertain.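 Primary human fetal astrocytes engulfed labelled rat cortical synaptosomes, measured as a red/green ratio corrected for calcein live-cell signal and scaled to the plate median. Toxicity meant calcein falling over 30%; decreased phagocytosis meant below 70% of median above 5 µM.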

Legend:
[1] = test system: Human fetal astrocytes; assay: loss of total cells relative to no-compound high-control median (toxicity); higher = more toxic (fewer cells); details: 24 h
[2] = test system: Human fetal astrocytes; assay: synaptosome phagocytosis (pHrodo/calcein intensity ratio) relative to plate median of data wells; higher = more phagocytosis; details: 24 h

| Compound | loss of total cells ([1]; 1.39 µM) | loss of total cells ([1]; 2.78 µM) | loss of total cells ([1]; 5.56 µM) | loss of total cells ([1]; 11.11 µM) | loss of total cells ([1]; 22.22 µM) | synaptosome phagocytosis ([2]; 1.39 µM) | synaptosome phagocytosis ([2]; 2.78 µM) | synaptosome phagocytosis ([2]; 5.56 µM) | synaptosome phagocytosis ([2]; 11.11 µM) | synaptosome phagocytosis ([2]; 22.22 µM) |
| --- | --- | --- | --- | --- | --- | --- | --- | --- | --- | --- |
| O=[N+]([O-])c1cc2nc(O)c(O)nc2cc1[N+](=O)[O-] | 8.8% | -12% | 26.3% | 5.8% | 18.4% | 104% | 123% | 104% | 125% | 112% |
| Cc1cn(C2C=CC(CO)O2)c(=O)[nH]c1=O (stereo not given) [2',3'-didehydro-3'-deoxythymidine] | 2.9% | 0% | -8.2% | -1.3% | 3.2% | 112% | 80.5% | 89.7% | 97.1% | 126% |
| CN1CCc2cc(Cl)c(O)cc2[C@@H](c2ccccc2)C1 | 4.6% | -22.2% | 1.6% | -18.4% | -8.8% | 99.9% | 101% | 96.6% | 99.5% | 94.4% |
| O=[N+]([O-])c1cccc2c(Br)[nH]nc12 [3-Bromo-7-nitroindazole] | 0.4% | 6.6% | -18% | 2.2% | -10.9% | 157% | 140% | 102% | 110% | 121% |
| Cc1ccc(O)c(N=Nc2ccccc2)n1 | -7.1% | -17.1% | -6.2% | -7.3% | -28.8% | 123% | 101% | 103% | 79.1% | 106% |
| COc1ccccc1N1CCN(CC(O)COc2cccc3ccccc23)CC1 (stereo not given) [Naftopidil dihydrochloride] | -8.1% | -4.1% | 8% | -7.6% | 13.1% | 112% | 90.7% | 119% | 105% | 84.7% |
| CN1CCc2ccccc2Cc2[nH]c3ccccc3c2CC1 | -18.5% | -14% | 2.3% | 13.3% | 14% | 85.1% | 70.3% | 112% | 99.4% | 120% |
| CC(O)C(O)[C@H]1CNc2nc(N)[nH]c(=O)c2N1 (stereo partly drawn) [(6R)-5,6,7,8-Tetrahydro-L-biopterin hydrochloride] | -11.5% | -8.1% | -9% | -17.2% | -35.4% | 132% | 128% | 130% | 113% | 112% |
| CCn1cc(C(=O)O)c(=O)c2ccc(Cc3ccccc3)nc21 [Amfonelic acid] | -9.6% | -4.3% | 10.7% | -13.9% | -2.4% | 92.1% | 89.7% | 119% | 124% | 146% |
| O=S(=O)(O)C1CCNCC1 [Piperidine-4-sulphonic acid] | -17.7% | -15.3% | -18.5% | -15.7% | -0.8% | 106% | 97.3% | 109% | 113% | 91.6% |
